Results of single-concentration screens

By UniProt entry, the sequences of proteins in these tests, tags left out. Residues count along the entry.
UniProt Q4DA54, 1-478: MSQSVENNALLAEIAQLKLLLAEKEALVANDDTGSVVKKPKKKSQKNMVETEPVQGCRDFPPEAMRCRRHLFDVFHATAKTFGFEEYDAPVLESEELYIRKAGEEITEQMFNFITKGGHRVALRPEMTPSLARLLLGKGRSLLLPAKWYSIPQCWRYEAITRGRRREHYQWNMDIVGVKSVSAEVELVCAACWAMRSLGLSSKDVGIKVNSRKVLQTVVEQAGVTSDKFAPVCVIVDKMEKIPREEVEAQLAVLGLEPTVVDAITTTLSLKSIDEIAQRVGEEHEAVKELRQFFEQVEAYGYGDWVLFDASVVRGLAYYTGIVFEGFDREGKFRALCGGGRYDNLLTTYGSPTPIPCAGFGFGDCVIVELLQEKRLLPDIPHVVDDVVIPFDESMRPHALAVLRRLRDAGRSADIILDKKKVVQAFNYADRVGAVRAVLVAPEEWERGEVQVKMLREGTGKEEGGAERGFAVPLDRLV
UniProt P9WNZ1, whole entry: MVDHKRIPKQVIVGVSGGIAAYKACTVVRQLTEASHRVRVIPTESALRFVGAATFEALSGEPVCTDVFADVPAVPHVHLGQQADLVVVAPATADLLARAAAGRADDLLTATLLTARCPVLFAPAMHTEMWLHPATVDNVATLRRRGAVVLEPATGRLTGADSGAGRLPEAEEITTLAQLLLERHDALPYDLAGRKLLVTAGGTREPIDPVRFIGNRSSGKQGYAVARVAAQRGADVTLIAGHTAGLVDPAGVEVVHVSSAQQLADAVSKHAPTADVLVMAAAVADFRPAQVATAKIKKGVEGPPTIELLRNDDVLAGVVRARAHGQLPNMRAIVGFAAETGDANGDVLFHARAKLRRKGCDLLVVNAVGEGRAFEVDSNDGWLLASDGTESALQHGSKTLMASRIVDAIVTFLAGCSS
UniProt P9WPC5, whole entry: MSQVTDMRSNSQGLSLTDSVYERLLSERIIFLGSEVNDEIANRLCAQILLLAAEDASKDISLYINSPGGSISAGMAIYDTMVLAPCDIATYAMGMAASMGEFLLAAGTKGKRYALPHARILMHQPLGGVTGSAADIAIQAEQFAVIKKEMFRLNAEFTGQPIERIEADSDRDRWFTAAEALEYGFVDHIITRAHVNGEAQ
UniProt P9WPC3, whole entry partner: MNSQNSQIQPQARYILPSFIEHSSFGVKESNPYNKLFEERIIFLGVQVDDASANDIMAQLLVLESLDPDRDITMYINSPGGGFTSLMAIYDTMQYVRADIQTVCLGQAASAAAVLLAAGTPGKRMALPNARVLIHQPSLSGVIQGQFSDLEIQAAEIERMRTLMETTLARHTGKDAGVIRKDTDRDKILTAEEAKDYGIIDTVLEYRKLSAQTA
UniProt Q8IDJ8, 1-583: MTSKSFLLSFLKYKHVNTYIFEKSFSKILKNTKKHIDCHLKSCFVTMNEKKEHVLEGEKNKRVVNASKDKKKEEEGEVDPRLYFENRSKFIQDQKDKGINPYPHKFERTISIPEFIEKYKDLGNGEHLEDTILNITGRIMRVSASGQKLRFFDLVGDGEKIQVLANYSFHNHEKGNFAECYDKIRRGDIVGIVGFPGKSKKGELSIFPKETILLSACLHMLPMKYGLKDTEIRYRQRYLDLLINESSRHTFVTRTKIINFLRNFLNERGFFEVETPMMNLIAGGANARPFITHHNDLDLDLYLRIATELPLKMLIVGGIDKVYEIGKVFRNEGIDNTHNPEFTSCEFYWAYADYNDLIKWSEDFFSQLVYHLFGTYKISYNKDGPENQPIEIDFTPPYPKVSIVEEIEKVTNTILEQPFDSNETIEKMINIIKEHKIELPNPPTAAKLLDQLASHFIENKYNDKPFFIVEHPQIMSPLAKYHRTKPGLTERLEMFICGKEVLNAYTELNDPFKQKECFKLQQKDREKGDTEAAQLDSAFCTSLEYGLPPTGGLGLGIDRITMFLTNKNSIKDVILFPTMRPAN

Leishmania in macrophages: 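Cell assay of Leishmania donovani living inside macrophages; the read-out is not stated. Tested at 30 µM. Higher reads as stronger inhibition (inferred: compounds with an IC50 in retests scored well above the rest). Size under these conditions: about 69,000 compounds, about 1,000 of them at 50% or above in at least one test.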
TcHisRS: 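Enzyme assay of histidyl-tRNA synthetase; the read-out is not stated. Target: Histidine-tRNA ligase, Trypanosoma cruzi CL Brener (UniProt Q4DA54). Concentration: 30 µM. Direction is inferred from retests: higher values go with stronger inhibition. Of about 69,000 compounds tested this way, about 31 (0.045%) reached 50% or more in at least one test.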
CoaBC: 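Enzyme assay of CoaBC with a phosphate dye (Biomol Green) read at 650 nm. Target: Coenzyme A biosynthesis protein CoaBC, Mycobacterium tuberculosis (UniProt P9WNZ1). Tested at 30 µM. Direction is inferred from only a few compounds that gave an IC50; most scored high, so higher reads as stronger inhibition. Most strong results did not repeat in a second test. Size under these conditions: about 67,000 compounds, about 40 of them at 50% or above in at least one test.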
ClpP1P2: 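ClpP1P2, Mycobacterium tuberculosis (UniProt P9WPC5 and UniProt P9WPC3). Protease assay of ClpP1P2, read by the AMC dye that it sets free. Compounds at 50 µM. Direction is inferred from only a few compounds that gave an IC50; most scored high, so higher reads as stronger inhibition. Most other retested compounds had strongly negative values. Of about 69,000 compounds tested this way, about 10 (0.015%) reached 50% or more in at least one test.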
PfKRS1: 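Lysine-tRNA ligase, Plasmodium falciparum 3D7 (UniProt Q8IDJ8). Enzyme assay of the cytosolic lysyl-tRNA synthetase in 384-well plates, read by luminescence. Compounds at 30 µM. Direction is inferred from only a few compounds that gave an IC50; most scored high, so higher reads as stronger inhibition. About 69,000 compounds were tested under these conditions; 0.071% (about 49) showed 50% or more at least once.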

Results are given as percent effect. The controls that fix the scale are not given in the record; negative values are as filed. This is an unselected part of the compounds tested. Two or more numbers in one place are separate tests of the same structure; such repeats can differ widely.

* CS(=O)(=O)N1CCC2(CC1)CN(CCn1cccn1)C(=O)CO2 | Leishmania in macrophages: -9.506%; TcHisRS: 8.021%; CoaBC: 10.58% & 94.58%; ClpP1P2: 9.645%; PfKRS1: -1.427%
* Cc1noc(Cl)c1CCC(=O)N1CCCCC1Cn1cccn1 (centres unmarked) | Leishmania in macrophages: 7.812%; TcHisRS: 3.261%; CoaBC: -3.644%; ClpP1P2: -2.768%; PfKRS1: 1.59%
* CNC(=O)[C@H]1C[C@@H]2CN(C(=O)c3ccccn3)C[C@@H]2N1S(C)(=O)=O | TcHisRS: 0%; CoaBC: 0.6165%; ClpP1P2: -12.54%; PfKRS1: 1.863%
* CS(=O)(=O)N[C@H]1CN(C(=O)CCc2ccc(=O)[nH]n2)C[C@@H]1C1CC1 | Leishmania in macrophages: 13.74%; TcHisRS: 4.545%; CoaBC: 1.088%; ClpP1P2: -6.428%; PfKRS1: 0.7244%
* Cc1cccc(CN2C(=O)CO[C@@H]3CN(Cc4cnn(C)c4)C[C@H]32)c1 | TcHisRS: 0%; CoaBC: 7.268%; ClpP1P2: -5.827%; PfKRS1: 1.853%
* Cc1nnc(CN2C[C@H](NC(=O)CC3CCCC3)[C@@H](C3CC3)C2)s1 | Leishmania in macrophages: -10.18%; TcHisRS: 1.734%; CoaBC: -5.211%; ClpP1P2: -15.42%; PfKRS1: -0.1701%
* Cc1nc(CN2CC[C@H]3[C@H]2CCN3c2nncs2)cs1 | TcHisRS: 2.151%; CoaBC: -5.708%; ClpP1P2: 8.796%; PfKRS1: 0.1067%
* Cc1cc(C)n2ncc(CN3C[C@@H](O)[C@H](Oc4ccccc4)C3)c2n1 | Leishmania in macrophages: 22.69%; TcHisRS: 5.323%; CoaBC: 2.349%; ClpP1P2: -0.1925%; PfKRS1: 2.34%
* CCC1=N[C@@]2(CC[C@@H]3CN(C(=O)NCc4ccccc4)C[C@@H]32)C(=O)N1 | TcHisRS: 3.825%; CoaBC: -1.931%; ClpP1P2: 0.761%; PfKRS1: -0.4987%
* CS(=O)(=O)c1nccn1CCOc1ccc(F)cc1Cl | Leishmania in macrophages: 25.31%; TcHisRS: -1.587%; CoaBC: -20.04%; ClpP1P2: -4.742%; PfKRS1: 3.199%
* Cc1cccc(-c2noc(CN3CCOCC3C)n2)c1 (centres unmarked) | Leishmania in macrophages: 15.73%; TcHisRS: 2.326%; CoaBC: 3.947%; ClpP1P2: -1.589%; PfKRS1: -1.464%
* Cn1cc(CN2CCN3C[C@H](Oc4cccnc4)C[C@H]3C2)cn1 | TcHisRS: 7.843%; CoaBC: 2.28%; ClpP1P2: -15.49%; PfKRS1: 9.138%
* [H][C@@]12CN(CC(C)C)C[C@]1(C(=O)NCC1CC1)CCCN2c1ncccn1 | Leishmania in macrophages: 11.67%
* O=C1[C@@H]2CCN(CC3CCOCC3)C[C@@H]2OCCN1c1ccccc1 | TcHisRS: 3.743%; CoaBC: -5.417%; ClpP1P2: -0.7974%; PfKRS1: 1.175%
* CNC(=O)N1CCC2(CC1)CN(C)c1ccc(F)cc12 | Leishmania in macrophages: 21.07%; TcHisRS: 7.362%; ClpP1P2: -7.109%; PfKRS1: 9.011%
* Cc1cc(CNCC2CCCN(C(=O)OC(C)(C)C)C2)no1 (centres unmarked) | Leishmania in macrophages: 5.412%; TcHisRS: 8.861%; CoaBC: 3.846%; ClpP1P2: -16.66%; PfKRS1: 0.5464%

The last 2 entries again:

With CNC(=O)N1CCC2(CC1)CN(C)c1ccc(F)cc12 the screen gave Leishmania in macrophages: 21.07%; TcHisRS: 7.362%; ClpP1P2: -7.109%; PfKRS1: 9.011%.
With Cc1cc(CNCC2CCCN(C(=O)OC(C)(C)C)C2)no1 (centres unmarked) the screen gave Leishmania in macrophages: 5.412%; TcHisRS: 8.861%; CoaBC: 3.846%; ClpP1P2: -16.66%; PfKRS1: 0.5464%.

Measurements from “University of Dundee, Small-Polar-MMV Screening Library” (2021), ChEMBL document CHEMBL3988442.